For the assay, the target named is T1, Sin3a (UniProt Q60520).
T1 sequence: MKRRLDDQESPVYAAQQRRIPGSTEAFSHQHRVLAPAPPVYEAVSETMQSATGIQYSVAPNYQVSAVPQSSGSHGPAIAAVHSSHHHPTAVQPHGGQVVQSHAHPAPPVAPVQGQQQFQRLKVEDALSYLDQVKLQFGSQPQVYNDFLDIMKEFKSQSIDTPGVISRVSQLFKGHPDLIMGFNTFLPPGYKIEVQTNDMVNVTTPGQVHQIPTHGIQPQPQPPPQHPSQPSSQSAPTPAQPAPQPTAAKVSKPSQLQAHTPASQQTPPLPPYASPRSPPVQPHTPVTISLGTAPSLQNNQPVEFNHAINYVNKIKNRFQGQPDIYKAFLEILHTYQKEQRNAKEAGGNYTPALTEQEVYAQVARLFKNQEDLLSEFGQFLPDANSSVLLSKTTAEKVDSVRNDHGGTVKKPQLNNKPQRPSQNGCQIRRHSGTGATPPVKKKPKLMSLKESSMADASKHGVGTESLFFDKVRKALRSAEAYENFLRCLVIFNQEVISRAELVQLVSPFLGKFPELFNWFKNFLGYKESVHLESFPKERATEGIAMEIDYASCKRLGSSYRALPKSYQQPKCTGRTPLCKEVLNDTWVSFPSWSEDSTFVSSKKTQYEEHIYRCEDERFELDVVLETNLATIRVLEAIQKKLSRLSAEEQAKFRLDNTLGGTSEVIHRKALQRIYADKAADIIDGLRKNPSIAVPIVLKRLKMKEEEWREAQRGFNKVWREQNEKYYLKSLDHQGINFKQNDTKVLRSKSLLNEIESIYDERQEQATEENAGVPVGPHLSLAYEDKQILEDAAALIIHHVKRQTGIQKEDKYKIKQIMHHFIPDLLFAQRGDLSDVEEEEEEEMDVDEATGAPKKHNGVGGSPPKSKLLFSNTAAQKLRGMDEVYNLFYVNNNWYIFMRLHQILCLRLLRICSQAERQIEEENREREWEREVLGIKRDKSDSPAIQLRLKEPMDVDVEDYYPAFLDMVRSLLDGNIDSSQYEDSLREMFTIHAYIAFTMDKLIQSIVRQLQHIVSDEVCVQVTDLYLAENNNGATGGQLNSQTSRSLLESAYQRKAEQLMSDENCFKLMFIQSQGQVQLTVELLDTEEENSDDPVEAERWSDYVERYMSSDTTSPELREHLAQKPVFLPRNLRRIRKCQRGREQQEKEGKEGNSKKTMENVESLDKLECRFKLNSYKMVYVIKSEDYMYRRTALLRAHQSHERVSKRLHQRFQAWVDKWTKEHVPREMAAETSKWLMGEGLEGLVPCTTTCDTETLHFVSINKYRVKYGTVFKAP
The assay can be described thus: co-IP; 293T cells cotransfected with Sin3a and Foxp3 plasmids, lysed after 48 h in 20 mM Tris-Cl pH 7.5, 1% Triton-X100, 150 mM NaCl; ~300 µg lysate protein immunoprecipitated with 5 µg antibody for 2 h at 4°C, protein A/G magnetic beads; Western blot; no benzonase treatment. In general terms: A western blot detects proteins with antibodies after separation by electrophoresis.

This is an account of results in publication PMC11327135.

These are yes or no findings as the source states them, for the method shown. Binding seen in cells or lysates may run through a third protein. Some binding calls cover weakened binding; strength is not graded here.

B1: Foxp3 (protein, UniProt Q99JB6 1-417)
chain: MPNPRPAKPMAPSLALGPSPGVLPSWKTAPKGSELLGTRGSGGPFQGRDLRSGAHTSSSLNPLPPSQLQLPTVPLVMVAPSGARLGPSPHLQALLQDRPHFMHQLSTVDAHAQTPVLQVRPLDNPAMISLPPPSAATGVFSLKARPGLPPGINVASLEWVSREPALLCTFPRSGTPRKDSNLLAAPQGSYPLLANGVCKWPGCEKVFEEPEEFLKHCQADHLLDEKGKAQCLLQREVVQSLEQQLELEKEKLGAMQAHLAGKMALAKAPSVASMDKSSCCIVATSTQGSVLPAWSAPREAPDGGLFAVRRHLWGSHGNSSFPEFFHNMDYFKYHNMRPPFTYATLIRWAILEAPERQRTLNEIYHWFTRMFAYFRNHPATWKNAIRHNLSLHKCFVRVESEKGAVWTVDEFEFRKKR
B1: the binding result is “binds”.
